Test results taken from patent US12503439B2, “Heteroaryl compounds for the treatment of pain” (VERTEX PHARMACEUTICALS INCORPORATED, priority 2022, dated 2025).
pIC50: −log10 of the molar value. Some results were stated once for a whole list of compounds, not compound by compound.

The chains behind the UniProt entries cited, without tags or fusion partners. Residues count along the entry.
UniProt Q9Y5Y9, 126-1722 limits assumed: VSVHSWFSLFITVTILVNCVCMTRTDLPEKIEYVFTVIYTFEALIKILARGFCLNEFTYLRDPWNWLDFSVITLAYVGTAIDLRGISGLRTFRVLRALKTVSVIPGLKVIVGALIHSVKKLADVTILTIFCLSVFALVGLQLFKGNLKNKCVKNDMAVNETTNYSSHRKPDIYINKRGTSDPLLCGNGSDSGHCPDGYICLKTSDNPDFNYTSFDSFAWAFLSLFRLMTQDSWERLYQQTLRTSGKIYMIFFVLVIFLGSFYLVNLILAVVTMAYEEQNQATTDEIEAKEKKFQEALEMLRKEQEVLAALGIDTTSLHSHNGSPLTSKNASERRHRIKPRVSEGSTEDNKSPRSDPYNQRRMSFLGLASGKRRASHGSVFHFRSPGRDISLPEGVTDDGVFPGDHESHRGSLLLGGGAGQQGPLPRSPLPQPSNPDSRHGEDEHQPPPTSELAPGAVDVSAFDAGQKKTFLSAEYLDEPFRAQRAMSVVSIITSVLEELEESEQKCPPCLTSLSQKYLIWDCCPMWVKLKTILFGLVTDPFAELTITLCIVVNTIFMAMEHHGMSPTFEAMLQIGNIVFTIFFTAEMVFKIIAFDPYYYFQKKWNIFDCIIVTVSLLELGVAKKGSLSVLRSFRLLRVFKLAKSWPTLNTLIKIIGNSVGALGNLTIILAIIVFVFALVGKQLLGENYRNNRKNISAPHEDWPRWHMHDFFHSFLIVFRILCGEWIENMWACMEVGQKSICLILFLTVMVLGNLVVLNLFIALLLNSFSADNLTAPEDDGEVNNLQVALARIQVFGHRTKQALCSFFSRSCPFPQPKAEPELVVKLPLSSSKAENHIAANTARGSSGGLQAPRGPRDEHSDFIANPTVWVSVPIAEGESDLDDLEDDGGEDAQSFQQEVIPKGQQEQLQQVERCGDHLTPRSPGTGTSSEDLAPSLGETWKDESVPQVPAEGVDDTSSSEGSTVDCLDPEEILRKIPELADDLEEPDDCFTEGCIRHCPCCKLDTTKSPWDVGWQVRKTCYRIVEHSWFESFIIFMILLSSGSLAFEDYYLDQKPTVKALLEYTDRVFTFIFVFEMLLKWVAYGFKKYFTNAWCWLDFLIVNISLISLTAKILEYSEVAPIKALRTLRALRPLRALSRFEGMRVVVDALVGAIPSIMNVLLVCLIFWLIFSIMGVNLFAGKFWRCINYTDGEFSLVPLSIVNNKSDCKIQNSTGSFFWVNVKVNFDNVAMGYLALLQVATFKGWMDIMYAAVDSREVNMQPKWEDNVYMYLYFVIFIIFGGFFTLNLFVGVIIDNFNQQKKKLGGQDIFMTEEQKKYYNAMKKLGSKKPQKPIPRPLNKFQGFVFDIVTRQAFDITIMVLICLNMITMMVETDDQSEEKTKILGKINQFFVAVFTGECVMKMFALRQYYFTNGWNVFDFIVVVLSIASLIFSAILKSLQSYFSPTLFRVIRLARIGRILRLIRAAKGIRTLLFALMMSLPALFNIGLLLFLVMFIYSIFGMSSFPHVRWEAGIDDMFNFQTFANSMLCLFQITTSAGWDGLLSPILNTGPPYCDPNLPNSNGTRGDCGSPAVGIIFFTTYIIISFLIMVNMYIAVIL

Biological target: truncated form of human NaV 1.8 with full channel activity (expressed in HEK cells) (Homo sapiens, UniProt Q9Y5Y9)
Test: E-VIPR assay detecting and measuring NaV inhibition properties (electrical stimulation, membrane potential FRET dyes)
Assay type: cell-based
Conditions: HEK cells expressing truncated human NaV 1.8, KIR2.1 BacMam; 11-point dose response; 30 min compound incubation; stimulation 10 Hz for 10 s; read-out: measured IC50 value in the E-VIPR Assay
Text: E-VIPR Assay Detecting and Measuring NaV Inhibition Properties
Sodium ion channels are voltage-dependent proteins that can be activated by inducing membrane voltage changes by applying electric fields. […] The instrument comprises a microtiter plate handler, an optical system for exciting the coumarin dye while simultaneously recording the coumarin and oxonol emissions, a waveform generator, a current- or voltage-controlled amplifier, and parallel electrode pairs that are inserted into assay plate wells. Under integrated computer control, this instrument passes user-programmed electrical stimulus protocols to cells within the wells of the microtiter plate.
16-20 hours prior to running the assay on E-VIPR, HEK cells expressing a truncated form of human NaV 1.8 with full channel activity were seeded into microtiter 384-well plates, pre-coated with matrigel, at a density of 25,000 cells per well. 2.5-5% KIR2.1 BacMam virus was added to the final cell suspension before seeding into cell plates. […] Cells were expanded in 5-layer CellSTACK culture chambers or cell culture flasks with vented caps, with 90-95% humidity and 5% CO2.
Reagents and Stock Solutions:
The concentration used can be dependent on viral titer of each batch.
Human Serum (HS, Millipore #S1P1-01KL, or Sigma SLBR5469V and SLBR5470V as a 50%/50% mixture, for 25% assay final concentration)
Hexyl Dye Solution (2× Concentration):
Bath 1 Buffer containing 0.5% β-cyclodextrin (made fresh prior to each use, Sigma #C4767), 8 μM CC2-DMPE and 2 μM DiSBAC6(3). The solution was made by adding 10% Pluronic F127 stock equal to combined volumes of CC2-DMPE and DiSBAC6(3). The order of preparation was first mix Pluronic and CC2-DMPE, then add DiSBAC6(3), then while vortexing add Bath 1/β-Cyclodextrin.
Assay Protocol (7 Key Steps):
The compound plate was backfilled with 45 μL per well of Compound Loading Buffer resulting in a 240-fold dilution of compound following a 1:1 transfer of compound into the cell plate (see Step 6). […] This assay dilution protocol was adjusted to enable a higher dose range to be tested in the presence of HS or if the final assay volume was altered. • 2) Hexyl Dye Solution was prepared. • 3) Cell plates were prepared. On the day of the assay, the media was aspirated, and the cells were washed three times with 80 μL of Bath-1 buffer, maintaining 25 μL residual volume in each well. • 4) 25 μL per well of Hexyl Dye Solution was dispensed into the cell plates. The cells were incubated for 20 minutes at room temperature or ambient conditions in darkness. • 5) 45 μL per well of Compound Loading Buffer was dispensed into compound plates. • 6) The cell plates were washed three times with 80 μL per well of Bath-1 Buffer, leaving […] of residual volume. Then 25 μL per well from compound plate was transferred to each cell plate. The mixture was incubated for 30 minutes at room temperature/ambient conditions. • 7) The cell plate containing compound was read on E-VIPR using the current-controlled amplifier to deliver stimulation wave pulses using a symmetrical biphasic waveform. […] A pre-stimulus recording was performed for each well for 0.5 seconds to obtain the un-stimulated intensities baseline. The stimulatory waveform was followed by 0.5 seconds of post-stimulation recording to examine the relaxation to the resting state. All E-VIPR responses were measured at 200 Hz acquisition rate. Data Analysis:
The response as a function of time was reported as the ratios obtained using the following formula: […]
The data were normalized by calculating the initial (Ri) and final (Rf) ratios. These were the average ratio values during part or all of the pre-stimulation period and during sample points during the stimulation period. The fluorescence ratio (Rf/Ri) was then calculated and reported as a function of time.
Control responses were obtained by performing assays in the presence of the positive control, and in the absence of pharmacological agents (DMSO vehicle negative control).

Question: With `Cc1c(C2(C)CCC2)nn(C2CCC(F)(F)CC2)c1-c1cc(=O)c2c(C(N)=O)nccc2[nH]1` [Compound 363, 2-[2-(4,4-difluorocyclohexyl)-4-methyl-5-(1-methylcyclobutyl)pyrazol-3-yl]-4-oxo-1H-1,6-naphthyridine-5-carboxamide] as the molecule, how does the pIC50 read?
Answer: > 6.30

Question: With `Cc1nnc(-c2nccc3[nH]c(-c4cnc(C5CC(F)(F)C5)cc4C4CCC(C(F)(F)F)CC4)cc(=O)c23)n1C` (centres unmarked) [Compound 237, 2-[6-(3,3-difluorocyclobutyl)-4-[4-(trifluoromethyl)cyclohexyl]-3-pyridyl]-5-(4,5-dimethyl-1,2,4-triazol-3-yl)-1H-1,6-naphthyridin-4-one] as the molecule, how does the pIC50 read?
Answer: > 6.30

Question: How did the pIC50 turn out when `Cc1c(Oc2nc3ccccc3cc2-c2cc(=O)c3c(C#N)nccc3[nH]2)ccc(F)c1F` [Compound 19, 2-[2-(3,4-difluoro-2-methyl-phenoxy)-3-quinolyl]-4-oxo-1H-1,6-naphthyridine-5-carbonitrile] was run?
Answer: > 6.30

Question: How did the pIC50 turn out when `Cc1c(Oc2ncc(C(F)(F)F)c(C)c2-c2cc(=O)c3c(-c4ncco4)cccc3[nH]2)ccc(F)c1F` [Compound 246, 2-[2-(3,4-difluoro-2-methyl-phenoxy)-4-methyl-5-(trifluoromethyl)-3-pyridyl]-5-oxazol-2-yl-1H-quinolin-4-one] was run?
Answer: > 6.30

Question: How did the pIC50 turn out when `CC1(C)CCN(c2nc3ccccc3cc2-c2cc(=O)c3c(C(N)=O)nccc3[nH]2)C1` [Compound 284, 2-[2-(3,3-dimethylpyrrolidin-1-yl)-3-quinolyl]-4-oxo-1H-1,6-naphthyridine-5-carboxamide] was run?
Answer: > 6.30

Question: `COc1c(Oc2cc(C(F)(F)F)c(F)cc2-c2cc(=O)c3c(C(=O)O)nccc3[nH]2)ccc(F)c1F` [Compound 254, 2-[2-(3,4-difluoro-2-methoxy-phenoxy)-5-fluoro-4-(trifluoromethyl)phenyl]-4-oxo-1H-1,6-naphthyridine-5-carboxylic acid] was tested. Which pIC50 did it give?
Answer: > 6.30

Question: With `Cc1c(C2(C(F)(F)F)CCC2)nn(C2CCC(F)(F)CC2)c1-c1cc(=O)c2c(C(N)=O)nccc2[nH]1` [Compound 360, 2-[2-(4,4-difluorocyclohexyl)-4-methyl-5-[1-(trifluoromethyl)cyclobutyl]pyrazol-3-yl]-4-oxo-1H-1,6-naphthyridine-5-carboxamide] as the molecule, how does the pIC50 read?
Answer: > 6.30

Question: How did the pIC50 turn out when `O=c1cc(-c2cnc(C3CC(F)(F)C3)cc2C2CCC(C(F)(F)F)CC2)[nH]c2ccncc12` (centres unmarked) [Compound 129, 2-[6-(3,3-difluorocyclobutyl)-4-[4-(trifluoromethyl)cyclohexyl]-3-pyridyl]-1H-1,6-naphthyridin-4-one] was run?
Answer: > 6.30

Question: How did the pIC50 turn out when `O=c1cc(-c2cnc(C3CC(F)(F)C3)cc2C2CCC(C(F)(F)F)CC2)[nH]c2ccnc(O)c12` (centres unmarked) [Compound 131, 2-[6-(3,3-difluorocyclobutyl)-4-[4-(trifluoromethyl)cyclohexyl]-3-pyridyl]-5-hydroxy-1H-1,6-naphthyridin-4-one] was run?
Answer: > 6.30

Question: How did the pIC50 turn out when `NC(=O)c1nccc2[nH]c(-c3ccc(C4CC(F)(F)C4)nc3C3CCC(F)(F)CC3)cc(=O)c12` [Compound 112, 2-[6-(3,3-difluorocyclobutyl)-2-(4,4-difluorocyclohexyl)-3-pyridyl]-4-oxo-1H-1,6-naphthyridine-5-carboxamide] was run?
Answer: > 6.30

Question: `Cc1c(Oc2ncc(C(F)(F)F)c(C)c2-c2cc(=O)c3c(NC4CCCOC4)nccc3[nH]2)ccc(F)c1F` (centres unmarked) [Compound 171, 2-[2-(3,4-difluoro-2-methyl-phenoxy)-4-methyl-5-(trifluoromethyl)-3-pyridyl]-5-(tetrahydropyran-3-ylamino)-1H-1,6-naphthyridin-4-one] was tested. Which pIC50 did it give?
Answer: > 6.30

Question: `CC(C)(C)c1ncc(-c2cc(=O)c3c(C(N)=O)nccc3[nH]2)c(C2CCC(F)(F)CC2)n1` [Compound 105, 2-[2-tert-butyl-4-(4,4-difluorocyclohexyl)pyrimidin-5-yl]-4-oxo-1H-1,6-naphthyridine-5-carboxamide] was tested. Which pIC50 did it give?
Answer: > 6.30

Question: `COc1nc(C)ccc1Oc1ncc(C(F)(F)F)c(C)c1-c1cc(=O)c2c(C#N)nccc2[nH]1` [Compound 143, 2-[2-[(2-methoxy-6-methyl-3-pyridyl)oxy]-4-methyl-5-(trifluoromethyl)-3-pyridyl]-4-oxo-1H-1,6-naphthyridine-5-carbonitrile] was tested. Which pIC50 did it give?
Answer: > 6.30

Question: `CC(C)(C)c1nn(C2CCC(F)(F)CC2)c(-c2[nH]c3ccnc(C(N)=O)c3c(=O)c2Br)c1Cl` [Compound 368, 3-bromo-2-[5-tert-butyl-4-chloro-2-(4,4-difluorocyclohexyl)pyrazol-3-yl]-4-oxo-1H-1,6-naphthyridine-5-carboxamide] was tested. Which pIC50 did it give?
Answer: > 6.30

Question: How did the pIC50 turn out when `NC(=O)c1nccc2[nH]c(-c3cc4ccccc4nc3N3CCCCC(F)(F)C3)cc(=O)c12` [Compound 294, 2-[2-(3,3-difluoroazepan-1-yl)-3-quinolyl]-4-oxo-1H-1,6-naphthyridine-5-carboxamide] was run?
Answer: > 6.30

Question: How did the pIC50 turn out when `Cc1cccnc1-c1nccc2[nH]c(-c3c(Oc4ccc(F)c(F)c4C)ncc(C(F)(F)F)c3C)cc(=O)c12` [Compound 226, 2-[2-(3,4-difluoro-2-methyl-phenoxy)-4-methyl-5-(trifluoromethyl)-3-pyridyl]-5-(3-methyl-2-pyridyl)-1H-1,6-naphthyridin-4-one] was run?
Answer: > 6.30

Question: `Cc1c(Oc2ncc(C(F)(F)F)c(C)c2-c2cc(=O)c3c(C4CCCCO4)cccc3[nH]2)ccc(F)c1F` (centres unmarked) [Compound 245, 2-[2-(3,4-difluoro-2-methyl-phenoxy)-4-methyl-5-(trifluoromethyl)-3-pyridyl]-5-tetrahydropyran-2-yl-1H-quinolin-4-one] was tested. Which pIC50 did it give?
Answer: > 6.30

Question: With `CO[C@H]1CCN(c2nccc3[nH]c(-c4c(Oc5ccc(F)c(F)c5C)ncc(C(F)(F)F)c4C)cc(=O)c23)C1` [Compound 174, 2-[2-(3,4-difluoro-2-methyl-phenoxy)-4-methyl-5-(trifluoromethyl)-3-pyridyl]-5-[(3S)-3-methoxypyrrolidin-1-yl]-1H-1,6-naphthyridin-4-one] as the molecule, how does the pIC50 read?
Answer: > 6.30

Question: With `Cc1cc(F)ccc1Oc1cc(C(F)(F)F)c(Cl)cc1-c1cc(=O)c2c(C(N)=O)nccc2[nH]1` [Compound 155, 2-[5-chloro-2-(4-fluoro-2-methyl-phenoxy)-4-(trifluoromethyl)phenyl]-4-oxo-1H-1,6-naphthyridine-5-carboxamide] as the molecule, how does the pIC50 read?
Answer: > 6.30

Question: With `COc1c(Oc2cc(C(F)(F)F)c(F)cc2-c2cc(=O)c3c(=O)n(C)ccc3[nH]2)ccc(F)c1F` [Compound 57, 2-[2-(3,4-difluoro-2-methoxy-phenoxy)-5-fluoro-4-(trifluoromethyl)phenyl]-6-methyl-1H-1,6-naphthyridine-4,5-dione] as the molecule, how does the pIC50 read?
Answer: > 6.30

Question: `COc1c(Oc2cc(C(F)(F)F)c(F)cc2-c2[nH]c3ccnc(C(N)=O)c3c(=O)c2C)ccc(F)c1F` [Compound 158, 2-[2-(3,4-difluoro-2-methoxy-phenoxy)-5-fluoro-4-(trifluoromethyl)phenyl]-3-methyl-4-oxo-1H-1,6-naphthyridine-5-carboxamide] was tested. Which pIC50 did it give?
Answer: > 6.30

Question: How did the pIC50 turn out when `COc1c(Oc2cc(C(F)(F)F)c(F)cc2-c2cc(=O)c3c(CC(N)=O)nccc3[nH]2)ccc(F)c1F` [Compound 199, 2-[2-[2-(3,4-difluoro-2-methoxy-phenoxy)-5-fluoro-4-(trifluoromethyl)phenyl]-4-oxo-1H-1,6-naphthyridin-5-yl]acetamide] was run?
Answer: > 6.30

Question: How did the pIC50 turn out when `CC(C)(C)c1ccc(-c2cc(=O)c3c(C(N)=O)nccc3[nH]2)c(C2CCC(F)(F)CC2)n1` [Compound 106, 2-[6-tert-butyl-2-(4,4-difluorocyclohexyl)-3-pyridyl]-4-oxo-1H-1,6-naphthyridine-5-carboxamide] was run?
Answer: > 6.30
